Laboratory results taken from patent publication US7230096B2, “Inhibitors against galectins” (priority 2001, dated 2007).
Some of these results come from one statement about several compounds together.

Protein sequences, listed by entry. Tags and fused reporters are not part of them.
UniProt P17931, whole entry: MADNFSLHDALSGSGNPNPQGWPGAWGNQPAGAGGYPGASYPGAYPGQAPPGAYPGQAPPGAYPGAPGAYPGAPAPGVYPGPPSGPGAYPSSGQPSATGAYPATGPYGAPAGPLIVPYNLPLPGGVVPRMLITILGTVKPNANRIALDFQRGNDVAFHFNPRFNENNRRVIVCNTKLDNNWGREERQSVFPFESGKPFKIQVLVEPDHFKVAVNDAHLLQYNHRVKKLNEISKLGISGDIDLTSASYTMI

Each compound was assayed against T1, recombinant human galectin-3 (Homo sapiens, UniProt P17931) (assay: Inhibition of galectin-3 binding to Galα3Galβ4GlcNAcβ-HRP conjugate (galectin-3 coated microwells)). Settings: competitive inhibition of Galα3Galβ4GlcNAcβ trisaccharide:HRP conjugate binding to galectin-3 coated microwells, five-fold serial dilutions.
T1 construct: made in house; host or cells: Escherichia coli
Method: NMR-spectra were recorded with a Bruker DRX-400 instrument. Chemical shifts are given in ppm, with reference to internal CHCl3 (δ 7.26 ppm) or HDO (δ 4.81 ppm). Chemical shifts and coupling constants were obtained from ^1H-NMR and proton resonances were assigned from COSY experiments. High-resolution FAB mass spectra (HRMS) were recorded with a JEOL SX-120 instrument. MALDI-TOF Spectra were recorded with a Bruker, Biflex instrument. Column chromatography was performed on SiO2 (Matrex, 60 Å, 35–70 μm, Grace Amicon) and TLC was carried out on SiO2 60 F254 (Merck) with detection under UV light and developed with aqueous sulfuric acid. Concentrations were made using rotary evaporation with bath temperature at or below 40° C. CH2Cl2 and CH3CN were dried by distillation from CaH2. Pyridine was dried over 4 Å molecular sieves. DMF was distilled and dried over 4 Å molecular sieves. MeOH and EtOH were dried over 3 Å molecular sieves. Microwell plates were from Nalge Nunc International (Nunc-immuno plate, maxisorp surface). PBS containing 0.05% Tween 20 is abbreviated PBS-T and PBS-T containing 1% BSA is abbreviated PBSA-T. Recombinant human galectin-3 was produced in Escherichia coli and purified as previously described (S. M. Massa et al, 1993). […] Microwell plates were developed with a TMB-peroxidase substrate kit (BioRad 172–1066) according to the manufacturers recommendations.
The compounds prepared above (12–24) were tested for their ability to inhibiting the binding of galectin-3 to a Galα3Galβ4GlcNAcβ trisaccharide:horseradish peroxidase conjugate.
Screening experiments. […] The wells were washed with PBS-T after 1 hour incubation at room temperature; followed by development with the TMB-peroxidase substrate kit. The reaction was stopped after 60 min by addition of 1N sulfuric acid (100 μL/well) and optical density was read at 450 nm. Each experiment was conducted twice with each sample in duplicate. […] Microtiter plate wells were coated with recombinant galectin-3 (10 μg/ml, 50 μl/well) from E. coli at 4° C. overnight, then washed three times with PBS-T. The wells were blocked with PBSA-T (100 μl/well) for 1 hour at room temperature, followed by washing with PBS-T. To the first well was added 125 μL of inhibitors 16, 18–19and 25 (0.2 mM in PBS-T). A five-fold serial dilution was performed by transfering 25 μL from the first well to a second well containing 100 μL PBS-T, mixing, then transfering 25 μL from the second well to a third well also containing 100 μL PBS-T, and so on to the eight well from which 25 μL were discarded. The dilution series was done in duplicate. […] Incubation, washing, and detection was performed as described above. The data was analyzed with non-linear regression analysis using the program Kaleidagraph™ from Synergy Software.

IC50, < 50 µM:
CO[C@@H]1O[C@H](CO)[C@@H](O[C@@H]2O[C@H](CO)[C@H](O)[C@H](NC(=O)c3ccccc3)[C@H]2O)[C@H](O)[C@H]1NC(C)=O [Compound 16, methyl 2-acetamido-2-deoxy-4-O-(3-benzamido-3-deoxy-β-D-galactopyranosyl)-β-D-glucopyranoside]
CO[C@@H]1O[C@H](CO)[C@@H](O[C@@H]2O[C@H](CO)[C@H](O)[C@H](NC(=O)c3ccccc3C(=O)O)[C@H]2O)[C@H](O)[C@H]1NC(C)=O [Compound 17, methyl 2-acetamido-2-deoxy-4-O-(3-[2-carboxybenzamido]-3-deoxy-β-D-galactopyranosyl)-β-D-glucopyranoside]
COc1c(F)c(F)c(C(=O)N[C@H]2[C@@H](O)[C@@H](CO)O[C@@H](O[C@H]3[C@H](O)[C@@H](NC(C)=O)[C@H](OC)O[C@@H]3CO)[C@@H]2O)c(F)c1F [Compound 18, methyl 2-acetamido-2-deoxy-4-O-(3-[4-methoxy-2,3,5,6-tetrafluorobenzamido]-3-deoxy-β-D-galactopyranosyl)-β-D-glucopyranoside]
CO[C@@H]1O[C@H](CO)[C@@H](O[C@@H]2O[C@H](CO)[C@H](O)[C@H](NC(=O)c3c(F)c(F)c(F)c(F)c3C(=O)O)[C@H]2O)[C@H](O)[C@H]1NC(C)=O [Compound 19, methyl 2-acetamido-2-deoxy-4-O-(3-[2-carboxy-3,4,5,6-tetrafluorobenzamido]-3-deoxy-β-D-galactopyranosyl)-β-D-glucopyranoside]
